Here are results for 1 substance from article PMC5430542.

Chains of the proteins cited; added tags and fusions are not shown. Lines headed by an entry give the natural chain unless they say otherwise; changes in a name come on top.
UniProt Q9BZL6: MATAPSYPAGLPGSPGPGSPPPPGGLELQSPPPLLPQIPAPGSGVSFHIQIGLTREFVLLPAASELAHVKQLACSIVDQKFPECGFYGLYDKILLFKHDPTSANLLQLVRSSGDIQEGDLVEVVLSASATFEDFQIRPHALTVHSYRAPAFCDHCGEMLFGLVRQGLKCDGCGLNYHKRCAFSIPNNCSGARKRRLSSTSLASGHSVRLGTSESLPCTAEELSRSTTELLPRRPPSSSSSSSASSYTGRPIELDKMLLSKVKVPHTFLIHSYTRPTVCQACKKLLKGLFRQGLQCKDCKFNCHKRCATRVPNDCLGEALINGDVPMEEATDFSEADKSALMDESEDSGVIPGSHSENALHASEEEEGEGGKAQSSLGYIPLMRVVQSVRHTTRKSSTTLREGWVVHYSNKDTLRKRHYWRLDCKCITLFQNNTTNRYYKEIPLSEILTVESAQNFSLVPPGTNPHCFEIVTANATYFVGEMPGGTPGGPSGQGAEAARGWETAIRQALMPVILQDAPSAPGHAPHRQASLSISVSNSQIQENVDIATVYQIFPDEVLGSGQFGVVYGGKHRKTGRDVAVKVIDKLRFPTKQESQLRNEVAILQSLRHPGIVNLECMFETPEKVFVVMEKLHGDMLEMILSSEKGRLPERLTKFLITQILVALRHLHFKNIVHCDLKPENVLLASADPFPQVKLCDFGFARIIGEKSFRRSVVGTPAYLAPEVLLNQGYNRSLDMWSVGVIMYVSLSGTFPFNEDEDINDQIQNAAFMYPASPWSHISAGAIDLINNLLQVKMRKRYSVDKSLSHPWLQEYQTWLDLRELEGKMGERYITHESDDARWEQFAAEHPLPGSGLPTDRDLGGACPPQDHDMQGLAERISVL
UniProt Q05655: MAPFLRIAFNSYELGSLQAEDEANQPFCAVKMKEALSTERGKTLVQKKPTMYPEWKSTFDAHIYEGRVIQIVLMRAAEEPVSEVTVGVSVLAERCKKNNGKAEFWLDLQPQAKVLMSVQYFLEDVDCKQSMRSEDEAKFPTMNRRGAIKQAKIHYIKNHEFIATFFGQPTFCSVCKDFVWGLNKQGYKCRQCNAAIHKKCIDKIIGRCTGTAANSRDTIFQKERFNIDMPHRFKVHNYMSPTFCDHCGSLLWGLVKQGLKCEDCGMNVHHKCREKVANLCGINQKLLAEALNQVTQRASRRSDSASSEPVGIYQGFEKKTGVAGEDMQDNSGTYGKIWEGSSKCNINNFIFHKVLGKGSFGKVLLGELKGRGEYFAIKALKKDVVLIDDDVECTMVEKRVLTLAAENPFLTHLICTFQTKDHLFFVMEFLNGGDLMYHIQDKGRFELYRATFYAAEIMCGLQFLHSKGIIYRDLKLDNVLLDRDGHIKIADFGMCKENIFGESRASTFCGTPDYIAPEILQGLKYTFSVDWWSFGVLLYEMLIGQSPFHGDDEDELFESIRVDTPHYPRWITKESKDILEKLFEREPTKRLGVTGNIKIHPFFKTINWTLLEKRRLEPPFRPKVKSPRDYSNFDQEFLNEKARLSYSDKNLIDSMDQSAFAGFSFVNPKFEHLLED

No constants are given. Whether binding was seen depends on the method and setting. Binding seen in cells or lysates may run through a third protein. Binding calls can cover weak binding; strength is not graded here.

One experiment has as its target GFP-PKD2 ΔC1a (human) (UniProt Q9BZL6). The experiment can be described thus: co-IP; GFP-PKD2 (WT or deletion mutants) precipitated with GFP trap (GFP nanobody beads) from lysates of transfected HEK293 cells stimulated with H2O2 (10 mM, 10 min); blot for PKCδ.
A further experiment addresses GFP-PKD2 ΔC1b (human) (UniProt Q9BZL6). Described as above.

“PKCδ (from UniProt Q05655 1-676) (enzyme)”: the binding result with GFP-PKD2 ΔC1a (human) and with GFP-PKD2 ΔC1b (human) was “binds” throughout.
